Measurements from publication PMC7396694, “Two MarR-Type Repressors Balance Precursor Uptake and Glycine Betaine Synthesis in Bacillus subtilis to Provide Cytoprotection Against Sustained Osmotic Stress” (Frontiers in Microbiology, 2020).
A negative result means that nothing was seen under these conditions. Tags and fusion partners may be left off the protein sequences shown.

Target: T1, GbsR-Strep-tag II (Bacillus subtilis JH642) (UniProt P71015)
T1 sequence (looked up): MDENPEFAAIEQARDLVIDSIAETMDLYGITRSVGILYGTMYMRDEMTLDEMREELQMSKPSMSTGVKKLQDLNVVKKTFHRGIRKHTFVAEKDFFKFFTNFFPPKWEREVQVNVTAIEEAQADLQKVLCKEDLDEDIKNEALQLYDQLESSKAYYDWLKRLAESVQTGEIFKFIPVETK
Assay: EMSA
Settings: 150 ug/ml herring sperm DNA; 10 mM Tris pH 8, 150 ug/ml herring sperm DNA, 7.5% glycerol, 1 pmol DNA in 20 ul, 20 min at 25 C; native 8% polyacrylamide gel; recombinant protein; residues 1-180; protein details: C-terminal Strep-tag II (SA-WSHPQFEK); label: 5' DY781 on the BS_gbsA_rev strand; probe letters rebuilt from the primers and the genome

GGGACTTTGACAGTTTAAAAACCATATGTTAGATTAAGGTTGTTAAAAACACAAACTTTATTTACGTCAAGGAGGCTTAT (double strand) [gbsA fragment lacking GbsR operator]
binding result: no binding
